Source: patent publication US20060029546A1, “Materials and methods for identifying anti-schizophrenic agents” (deCODE Genetics, Inc., priority 2004, published 2006)
Results are given in words; binding and its absence hold for the method and conditions named. For part of these data: In cells and extracts the contact can be indirect. Some entries that bind do so weakly or less than the wild type. One block for each substance: values may come before it.

Protein sequences, listed by entry. Tags and fused reporters are not part of them. Lines headed by an entry give the natural chain unless they say otherwise; changes in a name come on top.
UniProt Q15303: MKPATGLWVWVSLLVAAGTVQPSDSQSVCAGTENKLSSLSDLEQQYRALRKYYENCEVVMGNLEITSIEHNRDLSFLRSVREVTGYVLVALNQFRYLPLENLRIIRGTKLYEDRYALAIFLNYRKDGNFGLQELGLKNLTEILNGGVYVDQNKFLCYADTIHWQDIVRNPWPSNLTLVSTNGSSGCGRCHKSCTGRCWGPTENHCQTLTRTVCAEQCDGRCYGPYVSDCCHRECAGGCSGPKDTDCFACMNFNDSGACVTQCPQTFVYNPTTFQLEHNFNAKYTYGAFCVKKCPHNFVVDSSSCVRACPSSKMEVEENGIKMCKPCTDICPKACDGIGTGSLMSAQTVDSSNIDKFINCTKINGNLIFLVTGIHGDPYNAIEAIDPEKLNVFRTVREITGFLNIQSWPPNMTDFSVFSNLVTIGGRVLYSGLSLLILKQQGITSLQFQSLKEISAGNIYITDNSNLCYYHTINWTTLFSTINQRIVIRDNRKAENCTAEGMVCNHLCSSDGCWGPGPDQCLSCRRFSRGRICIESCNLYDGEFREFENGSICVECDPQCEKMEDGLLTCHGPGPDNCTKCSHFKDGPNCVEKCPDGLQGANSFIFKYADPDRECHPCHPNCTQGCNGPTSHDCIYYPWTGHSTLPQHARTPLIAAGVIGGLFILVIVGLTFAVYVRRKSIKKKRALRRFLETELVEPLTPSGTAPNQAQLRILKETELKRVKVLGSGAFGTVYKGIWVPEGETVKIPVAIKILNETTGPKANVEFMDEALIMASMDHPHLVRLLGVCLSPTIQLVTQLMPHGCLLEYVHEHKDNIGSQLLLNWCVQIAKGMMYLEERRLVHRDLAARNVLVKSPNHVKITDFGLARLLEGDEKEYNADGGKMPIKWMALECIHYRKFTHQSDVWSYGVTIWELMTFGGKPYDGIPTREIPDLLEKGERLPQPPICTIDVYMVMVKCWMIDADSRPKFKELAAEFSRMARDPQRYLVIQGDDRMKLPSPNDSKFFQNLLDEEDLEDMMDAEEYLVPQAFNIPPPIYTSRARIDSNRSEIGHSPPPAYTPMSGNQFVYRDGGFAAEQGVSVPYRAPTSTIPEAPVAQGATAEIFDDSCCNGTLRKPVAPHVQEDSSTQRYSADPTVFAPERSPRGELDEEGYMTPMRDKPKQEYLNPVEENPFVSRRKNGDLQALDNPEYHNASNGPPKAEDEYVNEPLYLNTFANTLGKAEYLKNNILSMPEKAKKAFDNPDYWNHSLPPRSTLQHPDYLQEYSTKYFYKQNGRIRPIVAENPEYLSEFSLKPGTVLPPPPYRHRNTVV
UniProt P06241: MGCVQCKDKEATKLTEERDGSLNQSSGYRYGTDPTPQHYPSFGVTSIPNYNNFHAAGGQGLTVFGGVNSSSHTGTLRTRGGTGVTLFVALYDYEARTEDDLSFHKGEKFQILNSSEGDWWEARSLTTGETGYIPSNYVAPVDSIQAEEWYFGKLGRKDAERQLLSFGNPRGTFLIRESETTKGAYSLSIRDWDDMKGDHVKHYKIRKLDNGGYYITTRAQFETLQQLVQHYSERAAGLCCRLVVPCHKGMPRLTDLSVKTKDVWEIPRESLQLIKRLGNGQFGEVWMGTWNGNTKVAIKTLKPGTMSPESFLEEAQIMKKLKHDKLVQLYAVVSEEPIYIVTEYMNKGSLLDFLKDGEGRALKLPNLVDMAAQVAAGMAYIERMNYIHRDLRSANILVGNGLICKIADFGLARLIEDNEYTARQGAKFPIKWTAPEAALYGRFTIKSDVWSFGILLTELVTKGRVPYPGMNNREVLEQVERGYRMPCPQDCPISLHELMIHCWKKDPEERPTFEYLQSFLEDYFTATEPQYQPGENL
UniProt A0JNB0: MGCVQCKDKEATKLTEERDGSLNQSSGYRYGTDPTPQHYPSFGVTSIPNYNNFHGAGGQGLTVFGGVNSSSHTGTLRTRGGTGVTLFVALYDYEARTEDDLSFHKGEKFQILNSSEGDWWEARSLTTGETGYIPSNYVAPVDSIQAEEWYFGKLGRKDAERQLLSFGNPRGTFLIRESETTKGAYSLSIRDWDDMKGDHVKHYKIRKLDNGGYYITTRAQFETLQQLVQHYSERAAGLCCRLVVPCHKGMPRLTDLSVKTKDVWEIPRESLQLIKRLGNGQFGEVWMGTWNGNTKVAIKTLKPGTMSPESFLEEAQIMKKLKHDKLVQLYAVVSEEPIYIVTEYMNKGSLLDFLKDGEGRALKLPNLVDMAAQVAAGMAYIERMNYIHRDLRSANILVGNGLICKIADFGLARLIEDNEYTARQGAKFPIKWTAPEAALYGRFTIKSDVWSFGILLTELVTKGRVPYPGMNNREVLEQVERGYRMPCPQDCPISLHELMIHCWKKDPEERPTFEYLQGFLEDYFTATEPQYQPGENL

Key:
[1] = target: ErbB4 (full-length, expressed in mammalian cells) (human) (UniProt Q15303); experiment: co-immunoprecipitation from stably co-expressing CHO-K1 cells
[2] = target: ErbB4 (full-length, expressed in mammalian cells) (human) (UniProt Q15303); experiment: co-immunoprecipitation with α-ErbB4 antibody from HEK293 lysate after 7.2 nM NRG1
[3] = target: ErbB4 bait (entire cytoplasmic domain of ErbB4 cloned into vector pGBKT7) (human) (UniProt Q15303); experiment: yeast two-hybrid screen, growth assay and β-galactosidase assay

binding [1]: binds
Substance: Fyn (co-expressed in CHO-K1 cells) (from UniProt P06241 2-537) (enzyme)

binding [2]: binds
Substance: Fyn tagged with a C-terminal V5-epitope (from UniProt P06241 2-537) (enzyme)

binding [3]: binds
Substance: partial cDNA clone comprising the SH2 and SH3 domains of Fyn (amino acids 60-252) (from UniProt A0JNB0 60-252) (enzyme)
